Source: ChEMBL document CHEMBL3988442, “University of Dundee, Small-Polar-MMV Screening Library” (2021).

Mtb cholesterol medium: 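Growth of Mycobacterium tuberculosis over 4 days (cholesterol / DPPC medium with tyloxapol); the read-out is not stated. Concentration: 50 µM. The record gives no direction; compounds that gave an IC50 in retests scored well above the rest, so higher reads as more growth inhibition. Size under these conditions: about 69,000 compounds, about 370 of them at 50% or above in at least one test.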
Mtb glucose medium: 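Growth of Mycobacterium tuberculosis over 3 days (7H9 medium with glucose and tyloxapol); the read-out is not stated. Compounds at 50 µM. Direction is inferred from retests: higher values go with more growth inhibition. Size under these conditions: about 69,000 compounds, about 760 of them at 50% or above in at least one test.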

The filed quantity is “Percent Effect” (%). How 0% and 100% were set is not recorded. Most values in the screen are low, and negative values occur. Compounds were drawn at random from those tested, without regard to their results. Two or more numbers in one place are separate tests of the same structure; such repeats can differ widely.

compound,Mtb cholesterol medium,Mtb glucose medium
[H][C@]12CCCCN1CCC[C@H]2CNC(=O)Cn1ccc2ccc(Br)cc21,-21.24,-2.085
CS(=O)(=O)NCCCNC(=O)c1cnc(-c2ccsc2)s1,-7.199 and -12.06,-16.65
NC(=O)C1CN(C(=O)Nc2ccc(SC(F)(F)F)cc2)CCO1 (centres unmarked),23.49,5.325 and 2.058
Cc1ccc(CNc2ccc(N3CCC(CO)CC3)cn2)o1,21.39,15.88
COc1cccc(N2CCN(CCC(=O)NC3CCCCC3)CC2)c1,-27.19,22.3
CC(=O)N1CCc2nnc(C3CCCCN3CC3CC3)n2CC1 (centres unmarked),-6.966,-18.03
Cc1cc(C)cc(CNCCS(=O)(=O)N2CCOCC2)c1,2.988 and -9.533,-23.93
Cc1nnc2ccc(N3CCN(CCc4ccccn4)CC3)nn12,1.818,28.14
Fc1ccc(NC2CCCN(Cc3ccncc3)C2)cc1 (centres unmarked),-13.46,6.335 and -34.38
CCOCCN1CCN(CC(O)c2ccc(C(F)(F)F)cc2)CC1 (centres unmarked),-6.951,22.49
COc1cc(NC(=O)c2ccc(F)cc2Cl)c(C(=O)N(C)C)cc1OC,-11.87 and -25.55,-24.84
CCOC(=O)[C@H]1[C@@H](O)C(=O)N(C)C12CCN(C(=O)CC(C)C)CC2,-21.81,-23.75
O=C(O)C(F)(F)F.OCCN1CCOC2(CCCN(c3cccc(F)c3)C2)C1 (centres unmarked),-8.164,8.972
CC(C)CN(CC(O)c1ccccc1)C(=O)Nc1nccs1 (centres unmarked),8.722,12.68
Cc1cccc(N2CCN(C(=O)CNCCn3cc(C)cn3)CC2)c1,4.364,11.77
[H][C@@]12COC[C@]1(COc1cccnc1)CN(C(=O)C1=CCCC1)C2,-13.28,2.52
c1ccc(OC2CCCC2)c(CNC2CCc3ncnn3C2)c1 (centres unmarked),-0.5477,23.68
O=C(NC1(c2cccc(F)c2)CCOCC1)c1cc[nH]n1,-9.489,-5.088
Cc1nn(Cc2ccc(C(=O)NCCCN3CCCC3=O)o2)c(C)c1Cl,6.375,17.7
CCC(O)CN1CCN(C(=O)c2cccn2Cc2ccccc2)CC1 (centres unmarked),-6.672,-10.57
CNC(=O)C1CN(C(=O)COc2ccccc2)Cc2cn(C)nc21 (centres unmarked),-8.306,-1.99
CS(=O)(=O)N1CCOCC2(CCN(C(=O)c3ccncc3)CC2)C1.O=C(O)C(F)(F)F,10.88,-20.8
COC(=O)CC1CCCCN1CC(=O)Nc1ccc(F)cc1Cl (centres unmarked),23.05,-0.4372
CCNC(=O)N1CCc2ccc(NC(=O)NCCOCC)cc21,6.766,11.08
COC(=O)C(NC(=O)c1cc(F)cc(F)c1)c1cccnc1 (centres unmarked),9.484,2.212 and -3.759
CCC(CC)C(=O)NCCc1ccn(-c2ccccc2)n1,-20.56,-7.766
CC1CN(CC(=O)Nc2ccncc2)CCN1c1nccs1 (centres unmarked),18.04,39.6 and 4.995
O=C(c1ccc(=O)[nH]n1)N1CCC(CN2CCOCC2)CC1,-17.31,-7.931
[H][C@]12CC[C@]([H])(CN(C(=O)Cc3ccc(O)c(Cl)c3)C1)N(CCOC)C2=O,-23.73,-15.31
CC(C)(C)c1cc(NC(=O)CN2CCc3cncnc3C2)on1,-18.47,17.55
Cc1noc(C2CCCN(C(=O)CCCNc3ncccn3)C2)n1 (centres unmarked),-7.926,-24.24
COc1ccccc1C(=O)NCc1n[nH]c(C)n1,-13.49,7.545
Cn1nnc2c(N3CC(C(=O)NCc4cccs4)C3)ncnc21,-14.83,-13.72
Cc1ccc(C(=O)NC2CCN(C(=O)NCc3ccccn3)CC2)o1,4.843,3.01
Cc1nc(C(C)C)sc1C(=O)NCCn1nc2ccccn2c1=O,-18.47,-28.76
CC[C@@H]1N(Cc2ccc(F)cc2)CCC[C@]12CCC(=O)N2CCOC.O=C(O)C(F)(F)F,-17.92,-1.06
Cl.Cl.Cl.c1cnc(NCc2cncc3c2CCN(Cc2cccnc2)C3)nc1,-18.11,-10.76
Cc1cc(C(=O)NC2CCc3c(ccc(=O)n3CC3CC3)C2)no1 (centres unmarked),-9.082,-0.4003
CCc1ccc(CN(C)C(=O)C(c2ccccc2F)N(C)C)nc1 (centres unmarked),15.73,-22.58
Cc1ccc2c(c1)[C@@H](CC(=O)N1CCOCC1)CCO2,-12.82,5.803
Cc1cnn(CC2CCCN2C(=O)Cc2c(C)noc2C)c1 (centres unmarked),3.032,22.72
[H][C@@]12CCCO[C@]1([H])[C@H](OCc1cccnc1)CN2C(=O)c1ccc(C)o1,10.58,12.59
CCc1cc(NC(=O)C(c2cccc(F)c2)N2CCOCC2)[nH]n1 (centres unmarked),-3.45 and -12.1,0.5378
CN(C)C(=O)C1CCC2(CCNCC2)C1.O=C(O)C(F)(F)F (centres unmarked),5.816,22.5
NC(=O)CSc1ccccc1NCc1nc(C2CC2)no1,-11.51,-7.52 and -32.24
COCCNC(=O)CN1CCCC1c1c(C)nn(C)c1Cl (centres unmarked),15.63,29.14
Fc1cccc(N2CCCC3(CN(Cc4cccnc4)CCO3)C2)c1.O=C(O)C(F)(F)F.O=C(O)C(F)(F)F.O=C(O)C(F)(F)F (centres unmarked),-6.678 and 6.004,-3.226

For reference, 3 entries once more:

| compound | Mtb cholesterol medium | Mtb glucose medium |
|---|---|---|
| `CC(=O)N1CCc2nnc(C3CCCCN3CC3CC3)n2CC1` (centres unmarked) | -6.966 | -18.03 |
| `CCC(O)CN1CCN(C(=O)c2cccn2Cc2ccccc2)CC1` (centres unmarked) | -6.672 | -10.57 |
| `[H][C@@]12COC[C@]1(COc1cccnc1)CN(C(=O)C1=CCCC1)C2` | -13.28 | 2.52 |